Test results as given in patent US7671028B2, “Peptides that antagonize FPR class receptor mediated signaling” (POSTECH Foundation, priority 2004, dated 2010).
For some assays here: Not every detail of the peptide structures is certain; ends, links or a residue may be inferred. Some results were stated once for a whole list of compounds, not compound by compound. Where no end group is shown, it is not given here.

Experiments:
[1] = system: FPR; conditions: literature values (refs 30, 31); read-out: IC50 (FPR antagonists); cited from earlier work
[2] = biological target: T1, FPRL1 (Homo sapiens, UniProt P25090); assay: Inhibition of 125I-labeled WKYMVm binding in FPRL1-expressing RBL-2H3 cells; conditions: negative control peptide, up to 10 μM
T1 construct: expressed in transfected cells; host or cells: RBL-2H3 (rat basophilic leukaemia) cells
T1 sequence (P25090 1-351): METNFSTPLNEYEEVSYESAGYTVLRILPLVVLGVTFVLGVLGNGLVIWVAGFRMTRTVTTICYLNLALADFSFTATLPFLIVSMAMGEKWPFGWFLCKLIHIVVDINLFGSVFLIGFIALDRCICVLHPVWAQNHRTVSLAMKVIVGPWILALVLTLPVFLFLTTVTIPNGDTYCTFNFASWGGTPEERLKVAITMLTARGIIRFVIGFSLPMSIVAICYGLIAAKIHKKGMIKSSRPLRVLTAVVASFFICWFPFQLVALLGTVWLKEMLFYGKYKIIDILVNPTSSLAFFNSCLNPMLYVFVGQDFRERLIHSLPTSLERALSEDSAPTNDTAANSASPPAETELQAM

[3] = biological target: T1, FPRL1; assay: WKYMVm-stimulated ERK phosphorylation in FPRL1-expressing RBL-2H3 cells (Western blot); assay type: cell-based; conditions: pretreatment prior to 10 nM WKYMVm; control peptide 10 μM
[4] = biological target: T1, FPRL1; assay: Chemotaxis of FPRL1-expressing RBL-2H3 cells (modified Boyden chamber); assay type: cell-based
[5] = system: human neutrophils; assay: Superoxide generation in human neutrophils (cytochrome c reduction); assay type: cell-based; conditions: preincubation prior to 40 μM Aβ42; WRW^4 10 μM, control peptide several concentrations
Method: FIGS. 7A-7D show effects of WRW^4 (SEQ ID NO:4) on the Aβ42-induced superoxide generation and chemotaxis in human neutrophils. […] Cytochrome c reduction was monitored, as described in EXAMPLES. The results shown are representative of four independent experiments (A, B). Chemotaxis assays were performed using a modified Boyden chamber assay, as described in EXAMPLES. […] The data are presented as mean±SE of three independent experiments each performed in duplicate (C, D).
Superoxide anion generation was determined by measuring cytochrome c reduction using a microtiter 96 well plate ELISA reader (Bio-Tekinstruments, EL312e, Winooski, Vt.) as previously described (23). Human neutrophils (1×10^6 cells/100 μl of RPMI 1640 medium per well of a 96-well plate) were preincubated with 50 μM cytochrome c at 37° C. for 1 min and then incubated with the indicated concentrations of peptides. Superoxide generation was determined for the change in light absorption at 550 nm over 5 minutes at 1 min intervals.
Superoxide generation is one of the important functions of phagocytic leukocytes like neutrophils (28).

[6] = system: human neutrophils; assay: Human neutrophil chemotaxis (modified Boyden chamber); assay type: cell-based; conditions: pretreatment, 40 μM Aβ42; 10 μM peptide

tBOC-Phe-Leu-Phe-Leu-Phe-OH (FLFLF; N-terminal tBOC; Synthetic BOC-Phe-Leu-Phe-Leu-Phe-OH) [FPR antagonist from the literature]
IC50 [1]: 0.44 to 3.7 µM

isopropylureido-Phe-Leu-Phe-Leu-Phe-OH (FLFLF; N-terminal isopropylureido; Synthetic isopropylureido-Phe-Leu-Phe-Leu-Phe-OH) [FPR antagonist from the literature]
IC50 [1]: 0.44 to 3.7 µM

LFMYHP-NH2 [LFMYHP, Leu-Phe-Met-Tyr-His-Pro-CONH2]
inhibitory effect on 125I-WKYMVm binding [2]: no inhibitory effect
effect on WKYMVm-elicited ERK phosphorylation [3]: did not inhibit
effect on WKYMVm-induced chemotaxis ([4]; 10 μM peptide, 10 nM WKYMVm): did not affect
effect on Aβ42 peptide-induced superoxide generation [5]: did not affect
effect on Aβ42 peptide-induced neutrophil chemotaxis [6]: did not affect

CSCC[C@H](NC(=O)[C@H](Cc1ccc(O)cc1)NC(=O)[C@H](CCCCN)NC(=O)[C@@H](N)Cc1c[nH]c2ccccc12)C(=O)N[C@H](C(=O)N[C@H](CCSC)C(N)=O)C(C)C [WKYMVm, Trp-Lys-Tyr-Met-Val-D-Met-ONH2]
effect of peptide alone on cellular chemotaxis ([4]; peptide alone, various concentrations (WRW^4 1 nM-10 μM)): caused cellular chemotaxis
